{
  "source": "PubChem BioAssay AID248",
  "about": "(DTP/NCI, 2004)",
  "tested_on": "L1210 leukemia ip in BDF1 mice, survival T/C",
  "assay": "NCI In Vivo Anticancer Drug Screen. Data for tumor model L1210 Leukemia (intraperitoneal) in B6D2F1 (BDF1) mice",
  "conditions": "T/C endpoint: mean survival time, higher T/C = longer survival",
  "key": {"[1]": {"conditions": "dose: 100.0 mg/kg/injection, schedule: Q01DX009 (ip), vehicle: saline"}, "[2]": {"conditions": "dose: 200.0 mg/kg/injection, schedule: Q01DX009 (ip), vehicle: saline"}, "[3]": {"conditions": "dose: 400.0 mg/kg/injection, schedule: Q04DX003 (ip), vehicle: saline"}, "[4]": {"conditions": "dose: 400.0 mg/kg/injection, schedule: Q01DX009 (ip), vehicle: saline with Tween-80"}, "[5]": {"conditions": "dose: 400.0 mg/kg/injection, schedule: Q04DX003 (ip), vehicle: Klucel (hydroxypropylcellulose) (HPC)"}, "[6]": {"conditions": "dose: 100.0 mg/kg/injection, schedule: Q01DX009 (ip), vehicle: saline with Tween-80"}, "[7]": {"conditions": "dose: 200.0 mg/kg/injection, schedule: Q04DX003 (ip), vehicle: saline with Tween-80"}, "[8]": {"conditions": "dose: 100.0 mg/kg/injection, schedule: Q04DX002 (ip), vehicle: saline with Tween-80"}, "[9]": {"conditions": "dose: 200.0 mg/kg/injection, schedule: Q04DX002 (ip), vehicle: saline with Tween-80"}, "[10]": {"conditions": "dose: 400.0 mg/kg/injection, schedule: Q04DX002 (ip), vehicle: saline with Tween-80"}, "[11]": {"conditions": "dose: 50.0 mg/kg/injection, schedule: Q01DX009 (ip), vehicle: saline"}},
  "note": "The list does not hold the whole screen: it gathers tests that were run many times, whatever their T/C, doses with no T/C, and many T/C values between a quarter and a half above the control. Further doses and runs are listed elsewhere. T/C: endpoint of the treated group in % of that of the vehicle group. Some entries give survivors of the animals treated and no T/C: the source files T/C as zero there, which appears to mark a toxic dose or a test without result, not a measured value. Some doses without a T/C left all or most animals alive at the check, yet need not have been tolerated: survival well below the control is almost never listed, so the zero probably covers shortened survival too. Survivors were counted at the toxicity check, usually on the fifth day, unless a day is given; later deaths do not show. Schedules are NCI's codes, taken here to give the interval after Q, in days (D) or hours (H), and the number of doses after X. Where survival is the endpoint, this PubChem deposit counts one and a half times the control or more as active, and values a quarter to a half above the control carry no call in these data; other NCI protocols may use other cut-offs.",
  "data": [
    {"smiles": "CC1NCCOC1c1ccccc1", "note": "(stereo not given)", "values": [
      {"measurement": "survivor count", "setting": "[1]", "result": "6 of 6"},
      {"measurement": "survivor count", "setting": "[2]", "result": "0 of 6"},
      {"measurement": "survivor count", "setting": "[3]", "result": "1 of 4"}
    ]},
    {"smiles": "CCOc1ccc(NC(=S)NC(=O)c2ccco2)cc1", "values": [
      {"measurement": "survivor count", "setting": "[4]", "result": "1 of 6"}
    ]},
    {"smiles": "COC(=O)c1cc([N+](=O)[O-])c(Cl)c([N+](=O)[O-])c1", "values": [
      {"measurement": "survivor count", "setting": "dose: 50.0 mg/kg/injection, schedule: Q01DX009 (ip), vehicle: Klucel (hydroxypropylcellulose) (HPC)", "result": "0 of 6"},
      {"measurement": "survivor count", "setting": "dose: 100.0 mg/kg/injection, schedule: Q01DX009 (ip), vehicle: Klucel (hydroxypropylcellulose) (HPC)", "result": "0 of 6"},
      {"measurement": "survivor count", "setting": "dose: 200.0 mg/kg/injection, schedule: Q04DX003 (ip), vehicle: Klucel (hydroxypropylcellulose) (HPC)", "result": "6 of 6"},
      {"measurement": "survivor count", "setting": "[5]", "result": "2 of 6"}
    ]},
    {"smiles": "NC(N)=NNC(=S)S", "values": [
      {"measurement": "survivor count", "setting": "[6]", "result": "3 of 6"},
      {"measurement": "survivor count", "setting": "[7]", "result": "1 of 6"}
    ]},
    {"smiles": "CC(=O)[O][Sn]([CH2]C1CCCC1)([CH2]C1CCCC1)[CH2]C1CCCC1", "values": [
      {"measurement": "survivor count", "setting": "dose: 6.25 mg/kg/injection, schedule: Q04DX002 (ip), vehicle: saline with Tween-80", "result": "2 of 3"},
      {"measurement": "survivor count", "setting": "dose: 12.5 mg/kg/injection, schedule: Q04DX002 (ip), vehicle: saline with Tween-80", "result": "3 of 3"},
      {"measurement": "survivor count", "setting": "dose: 25.0 mg/kg/injection, schedule: Q04DX002 (ip), vehicle: saline with Tween-80", "result": "1 of 3"},
      {"measurement": "survivor count", "setting": "[8]", "result": "0 of 3"},
      {"measurement": "survivor count", "setting": "[9]", "result": "0 of 3"},
      {"measurement": "survivor count", "setting": "[10]", "result": "0 of 3"}
    ]},
    {"smiles": "O=C(/C(=C\\c1ccccc1)CBr)c1ccc(Cl)cc1", "values": [
      {"measurement": "survivor count", "setting": "[7]", "result": "1 of 6"},
      {"measurement": "survivor count", "setting": "dose: 400.0 mg/kg/injection, schedule: Q04DX003 (ip), vehicle: saline with Tween-80", "result": "3 of 6"}
    ]},
    {"smiles": "CC1(C)N=C(N)N=C(N)N1c1ccc(OCC(=O)N2CCOCC2)cc1", "values": [
      {"measurement": "survivor count", "setting": "[2]", "result": "1 of 6"}
    ]},
    {"smiles": "CC/C(=C(\\CC)c1ccc(OCCN(CC)CC)cc1)c1ccc(OCCN(CC)CC)cc1", "values": [
      {"measurement": "survivor count", "setting": "dose: 20.0 mg/kg/injection, schedule: Q01DX001 (ip), vehicle: carboxymethylcellulose (CMC)", "result": "1 of 4"},
      {"measurement": "survivor count", "setting": "dose: 50.0 mg/kg/injection, schedule: Q01DX001 (ip), vehicle: carboxymethylcellulose (CMC)", "result": "0 of 4"},
      {"measurement": "survivor count", "setting": "dose: 80.0 mg/kg/injection, schedule: Q01DX001 (ip), vehicle: carboxymethylcellulose (CMC)", "result": "0 of 4"},
      {"measurement": "survivor count", "setting": "dose: 200.0 mg/kg/injection, schedule: Q01DX001 (ip), vehicle: carboxymethylcellulose (CMC)", "result": "0 of 4"},
      {"measurement": "survivor count", "setting": "dose: 400.0 mg/kg/injection, schedule: Q01DX001 (ip), vehicle: carboxymethylcellulose (CMC)", "result": "0 of 4"}
    ]},
    {"smiles": "Cc1ccc(SC2CC3CC2C2COCC32)cc1", "note": "(stereo not given)", "values": [
      {"measurement": "survivor count", "setting": "dose: 200.0 mg/kg/injection, schedule: Q01DX009 (ip), vehicle: Klucel (hydroxypropylcellulose) (HPC)", "result": "0 of 6"},
      {"measurement": "survivor count", "setting": "[5]", "result": "3 of 6"}
    ]},
    {"smiles": "O=C1C2C3SC(c4nc5ccccc5cc43)C2C(=O)N1c1ccccc1", "note": "(stereo not given)", "values": [
      {"measurement": "survivor count", "setting": "dose: 100.0 mg/kg/injection, schedule: Q01DX001 (ip), vehicle: saline with Tween-80", "result": "3 of 3"},
      {"measurement": "survivor count", "setting": "dose: 200.0 mg/kg/injection, schedule: Q01DX001 (ip), vehicle: saline with Tween-80", "result": "3 of 3"}
    ]},
    {"smiles": "CN1CCCCC1CCN1c2ccccc2Sc2ccc(S(C)=O)cc21", "note": "(stereo not given)", "values": [
      {"measurement": "T/C", "setting": "[11]", "result": "130 % of control"},
      {"measurement": "survivor count", "setting": "[11]", "result": "0 of 6"},
      {"measurement": "survivor count", "setting": "[1]", "result": "0 of 6"},
      {"measurement": "survivor count", "setting": "dose: 200.0 mg/kg/injection, schedule: Q04DX003 (ip), vehicle: saline", "result": "0 of 6"},
      {"measurement": "survivor count", "setting": "[3]", "result": "0 of 6"}
    ]},
    {"smiles": "ClC(C[n+]1ccccc1)c1ccccc1", "note": "(stereo not given)", "values": [
      {"measurement": "survivor count", "setting": "dose: 200.0 mg/kg/injection, schedule: Q01DX001 (ip), vehicle: saline", "result": "0 of 4"},
      {"measurement": "survivor count", "setting": "dose: 400.0 mg/kg/injection, schedule: Q01DX001 (ip), vehicle: saline", "result": "0 of 4"}
    ]},
    {"smiles": "COC(=O)c1ccccc1N(C)C(=O)Nc1ccc(F)cc1", "values": [
      {"measurement": "survivor count", "setting": "dose: 400.0 mg/kg/injection, schedule: Q04DX002 (ip), vehicle: carboxymethylcellulose (CMC)", "result": "3 of 3"}
    ]},
    {"smiles": "O=C1C=CC(=Nc2ccc(O)cc2)O1", "values": [
      {"measurement": "survivor count", "setting": "[6]", "result": "0 of 6"},
      {"measurement": "survivor count", "setting": "dose: 200.0 mg/kg/injection, schedule: Q01DX009 (ip), vehicle: saline with Tween-80", "result": "0 of 6"},
      {"measurement": "survivor count", "setting": "[4]", "result": "0 of 6"}
    ]},
    {"smiles": "NNCCO", "values": [
      {"measurement": "survivor count", "setting": "[6]", "result": "0 of 3"},
      {"measurement": "survivor count", "setting": "[8]", "result": "1 of 3"},
      {"measurement": "survivor count", "setting": "[9]", "result": "0 of 3"},
      {"measurement": "survivor count", "setting": "[10]", "result": "0 of 3"}
    ]},
    {"smiles": "CCC(=O)Oc1ccc(/C=N/NC(N)=S)nc1", "values": [
      {"measurement": "T/C", "setting": "[9]", "result": "129 % of control"},
      {"measurement": "T/C", "setting": "[10]", "result": "129 % of control"}
    ]}
  ]
}
